Reference: paper doi:10.1101/435875
Results are given in words; binding and its absence hold for the method and conditions named. In cells and extracts the contact can be indirect. Some results given as binding are weak or reduced against the parent protein; the word gives no strength.

Protein sequences, listed by entry. Tags and fused reporters are not part of them.
UniProt Q62658, whole entry: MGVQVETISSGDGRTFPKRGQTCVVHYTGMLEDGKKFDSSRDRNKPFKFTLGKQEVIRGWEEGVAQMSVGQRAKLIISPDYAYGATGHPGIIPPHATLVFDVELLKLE
UniProt B0LPN4, whole entry: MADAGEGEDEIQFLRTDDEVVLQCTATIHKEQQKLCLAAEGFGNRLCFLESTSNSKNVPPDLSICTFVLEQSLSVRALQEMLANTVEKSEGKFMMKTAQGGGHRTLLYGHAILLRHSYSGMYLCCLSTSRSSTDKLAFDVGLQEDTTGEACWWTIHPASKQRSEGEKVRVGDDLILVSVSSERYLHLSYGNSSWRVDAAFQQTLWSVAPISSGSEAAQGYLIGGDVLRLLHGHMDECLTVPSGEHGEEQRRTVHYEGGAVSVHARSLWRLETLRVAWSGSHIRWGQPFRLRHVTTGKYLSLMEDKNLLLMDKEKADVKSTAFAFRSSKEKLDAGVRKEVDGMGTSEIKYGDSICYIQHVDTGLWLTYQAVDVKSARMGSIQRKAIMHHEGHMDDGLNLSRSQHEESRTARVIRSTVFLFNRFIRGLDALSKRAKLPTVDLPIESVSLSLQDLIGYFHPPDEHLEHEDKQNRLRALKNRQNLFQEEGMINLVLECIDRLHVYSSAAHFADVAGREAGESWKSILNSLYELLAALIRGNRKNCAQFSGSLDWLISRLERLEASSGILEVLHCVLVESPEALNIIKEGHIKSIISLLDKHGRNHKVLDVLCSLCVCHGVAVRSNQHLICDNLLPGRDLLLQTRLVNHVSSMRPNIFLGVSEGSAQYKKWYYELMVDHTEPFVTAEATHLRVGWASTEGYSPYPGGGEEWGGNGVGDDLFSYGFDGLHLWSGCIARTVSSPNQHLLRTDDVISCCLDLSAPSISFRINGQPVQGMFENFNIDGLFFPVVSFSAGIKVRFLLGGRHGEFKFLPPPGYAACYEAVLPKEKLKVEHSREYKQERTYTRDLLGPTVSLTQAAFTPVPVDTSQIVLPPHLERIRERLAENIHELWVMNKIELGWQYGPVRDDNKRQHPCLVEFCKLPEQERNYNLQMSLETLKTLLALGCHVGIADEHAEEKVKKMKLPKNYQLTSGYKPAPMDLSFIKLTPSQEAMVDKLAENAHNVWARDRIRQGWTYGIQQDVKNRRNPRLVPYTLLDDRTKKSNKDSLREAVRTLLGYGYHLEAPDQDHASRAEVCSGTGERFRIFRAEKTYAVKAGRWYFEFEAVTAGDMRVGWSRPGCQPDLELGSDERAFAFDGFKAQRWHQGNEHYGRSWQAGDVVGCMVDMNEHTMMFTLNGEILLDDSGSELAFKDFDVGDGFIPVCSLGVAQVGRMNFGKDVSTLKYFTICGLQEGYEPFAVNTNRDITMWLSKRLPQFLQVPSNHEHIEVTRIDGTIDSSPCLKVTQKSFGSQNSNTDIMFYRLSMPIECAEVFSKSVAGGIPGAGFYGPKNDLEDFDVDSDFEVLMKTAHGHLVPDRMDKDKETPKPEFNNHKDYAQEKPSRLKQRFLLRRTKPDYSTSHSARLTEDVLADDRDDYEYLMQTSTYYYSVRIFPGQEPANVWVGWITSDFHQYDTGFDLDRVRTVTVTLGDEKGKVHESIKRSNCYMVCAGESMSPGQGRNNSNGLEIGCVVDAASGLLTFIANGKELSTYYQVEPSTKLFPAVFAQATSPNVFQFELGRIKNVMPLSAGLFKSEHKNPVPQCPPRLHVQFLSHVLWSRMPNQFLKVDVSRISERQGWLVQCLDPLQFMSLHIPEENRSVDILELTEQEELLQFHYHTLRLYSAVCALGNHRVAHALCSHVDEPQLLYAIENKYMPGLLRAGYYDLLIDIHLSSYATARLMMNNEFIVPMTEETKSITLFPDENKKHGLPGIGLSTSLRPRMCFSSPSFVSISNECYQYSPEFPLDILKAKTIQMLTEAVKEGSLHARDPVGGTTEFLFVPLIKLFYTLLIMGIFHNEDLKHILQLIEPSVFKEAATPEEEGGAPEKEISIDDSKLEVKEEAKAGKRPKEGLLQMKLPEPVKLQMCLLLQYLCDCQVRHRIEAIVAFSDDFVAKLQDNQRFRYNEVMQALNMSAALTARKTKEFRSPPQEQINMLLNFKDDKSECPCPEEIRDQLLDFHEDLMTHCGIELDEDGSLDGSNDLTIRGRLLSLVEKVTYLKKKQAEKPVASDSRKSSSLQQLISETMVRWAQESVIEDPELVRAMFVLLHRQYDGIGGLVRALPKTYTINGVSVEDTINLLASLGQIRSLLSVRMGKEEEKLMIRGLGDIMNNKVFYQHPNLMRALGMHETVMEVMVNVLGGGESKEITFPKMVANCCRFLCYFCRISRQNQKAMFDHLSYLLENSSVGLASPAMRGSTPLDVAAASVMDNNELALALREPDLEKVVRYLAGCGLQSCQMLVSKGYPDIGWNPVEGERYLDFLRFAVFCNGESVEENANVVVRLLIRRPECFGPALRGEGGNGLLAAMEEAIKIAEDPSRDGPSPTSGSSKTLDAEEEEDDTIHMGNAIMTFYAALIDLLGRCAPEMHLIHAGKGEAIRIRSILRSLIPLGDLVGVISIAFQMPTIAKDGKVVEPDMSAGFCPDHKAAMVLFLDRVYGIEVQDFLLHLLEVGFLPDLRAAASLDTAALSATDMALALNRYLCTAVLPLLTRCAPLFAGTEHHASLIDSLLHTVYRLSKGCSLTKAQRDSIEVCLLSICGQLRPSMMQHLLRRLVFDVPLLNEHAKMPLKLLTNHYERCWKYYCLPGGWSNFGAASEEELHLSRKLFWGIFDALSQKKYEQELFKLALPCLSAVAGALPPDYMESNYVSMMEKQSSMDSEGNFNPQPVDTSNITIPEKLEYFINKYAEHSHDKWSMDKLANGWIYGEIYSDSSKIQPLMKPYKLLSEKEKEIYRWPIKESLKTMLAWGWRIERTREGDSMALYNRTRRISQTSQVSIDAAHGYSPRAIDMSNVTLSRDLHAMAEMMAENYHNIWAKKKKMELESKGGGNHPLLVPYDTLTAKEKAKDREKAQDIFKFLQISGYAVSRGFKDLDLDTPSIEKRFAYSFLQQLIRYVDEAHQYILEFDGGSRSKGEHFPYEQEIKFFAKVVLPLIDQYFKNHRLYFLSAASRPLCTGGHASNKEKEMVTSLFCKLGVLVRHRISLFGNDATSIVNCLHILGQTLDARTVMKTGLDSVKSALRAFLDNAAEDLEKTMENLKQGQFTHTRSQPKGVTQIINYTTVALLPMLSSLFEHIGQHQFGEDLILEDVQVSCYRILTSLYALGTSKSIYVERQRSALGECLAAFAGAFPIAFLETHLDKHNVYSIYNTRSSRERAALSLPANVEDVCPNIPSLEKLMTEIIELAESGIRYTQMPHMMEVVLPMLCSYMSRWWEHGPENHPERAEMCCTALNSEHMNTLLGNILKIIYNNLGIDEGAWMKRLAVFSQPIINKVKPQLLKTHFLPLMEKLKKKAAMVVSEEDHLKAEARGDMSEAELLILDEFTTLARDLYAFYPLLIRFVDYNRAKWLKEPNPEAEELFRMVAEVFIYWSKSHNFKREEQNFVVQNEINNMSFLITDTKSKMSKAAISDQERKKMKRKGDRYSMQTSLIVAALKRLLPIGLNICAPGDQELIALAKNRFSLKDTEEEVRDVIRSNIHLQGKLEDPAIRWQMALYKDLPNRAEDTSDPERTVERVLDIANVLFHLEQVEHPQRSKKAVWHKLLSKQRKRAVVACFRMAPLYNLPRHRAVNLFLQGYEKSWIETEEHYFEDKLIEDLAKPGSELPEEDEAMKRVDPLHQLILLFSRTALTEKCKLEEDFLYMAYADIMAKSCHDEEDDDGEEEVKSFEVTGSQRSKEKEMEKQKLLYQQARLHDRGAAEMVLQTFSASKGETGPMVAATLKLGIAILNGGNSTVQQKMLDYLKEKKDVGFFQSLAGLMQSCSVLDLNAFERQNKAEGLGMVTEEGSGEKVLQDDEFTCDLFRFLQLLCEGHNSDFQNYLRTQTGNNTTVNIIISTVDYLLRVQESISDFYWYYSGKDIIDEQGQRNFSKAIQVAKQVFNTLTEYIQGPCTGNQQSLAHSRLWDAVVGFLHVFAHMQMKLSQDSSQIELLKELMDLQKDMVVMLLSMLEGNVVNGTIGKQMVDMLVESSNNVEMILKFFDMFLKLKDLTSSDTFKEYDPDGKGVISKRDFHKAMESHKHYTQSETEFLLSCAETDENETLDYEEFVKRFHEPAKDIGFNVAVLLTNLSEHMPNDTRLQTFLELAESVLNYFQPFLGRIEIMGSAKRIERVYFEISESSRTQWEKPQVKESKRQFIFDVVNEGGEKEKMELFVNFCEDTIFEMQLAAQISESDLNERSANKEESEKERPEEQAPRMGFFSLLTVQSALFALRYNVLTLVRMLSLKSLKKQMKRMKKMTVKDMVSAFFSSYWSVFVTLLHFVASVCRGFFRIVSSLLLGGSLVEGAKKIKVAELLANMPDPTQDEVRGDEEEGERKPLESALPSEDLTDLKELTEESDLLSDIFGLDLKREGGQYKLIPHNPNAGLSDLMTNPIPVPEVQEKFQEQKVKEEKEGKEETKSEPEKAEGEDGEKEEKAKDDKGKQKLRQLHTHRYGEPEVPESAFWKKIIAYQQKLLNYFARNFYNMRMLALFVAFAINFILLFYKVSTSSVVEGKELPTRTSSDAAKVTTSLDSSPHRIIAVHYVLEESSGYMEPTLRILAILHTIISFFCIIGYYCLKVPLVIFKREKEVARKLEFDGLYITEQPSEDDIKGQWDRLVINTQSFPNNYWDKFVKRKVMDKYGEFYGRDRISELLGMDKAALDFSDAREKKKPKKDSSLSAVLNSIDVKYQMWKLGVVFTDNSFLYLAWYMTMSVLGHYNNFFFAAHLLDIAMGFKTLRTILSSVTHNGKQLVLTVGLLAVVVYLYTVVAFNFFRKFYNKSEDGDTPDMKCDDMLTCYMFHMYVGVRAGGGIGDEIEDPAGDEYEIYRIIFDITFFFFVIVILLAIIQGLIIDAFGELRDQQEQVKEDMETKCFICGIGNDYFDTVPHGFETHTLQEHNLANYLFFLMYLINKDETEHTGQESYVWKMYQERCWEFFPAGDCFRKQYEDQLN

Molecular target: GST-FKBP12 (rat) (UniProt Q62658)
Assay: pull-down

For RyR2 (from UniProt B0LPN4 1-4955), the binding was “binds”.
